The values below come from article PMC3065485.

By UniProt entry, the sequences of proteins in these tests, tags left out.
UniProt P25655: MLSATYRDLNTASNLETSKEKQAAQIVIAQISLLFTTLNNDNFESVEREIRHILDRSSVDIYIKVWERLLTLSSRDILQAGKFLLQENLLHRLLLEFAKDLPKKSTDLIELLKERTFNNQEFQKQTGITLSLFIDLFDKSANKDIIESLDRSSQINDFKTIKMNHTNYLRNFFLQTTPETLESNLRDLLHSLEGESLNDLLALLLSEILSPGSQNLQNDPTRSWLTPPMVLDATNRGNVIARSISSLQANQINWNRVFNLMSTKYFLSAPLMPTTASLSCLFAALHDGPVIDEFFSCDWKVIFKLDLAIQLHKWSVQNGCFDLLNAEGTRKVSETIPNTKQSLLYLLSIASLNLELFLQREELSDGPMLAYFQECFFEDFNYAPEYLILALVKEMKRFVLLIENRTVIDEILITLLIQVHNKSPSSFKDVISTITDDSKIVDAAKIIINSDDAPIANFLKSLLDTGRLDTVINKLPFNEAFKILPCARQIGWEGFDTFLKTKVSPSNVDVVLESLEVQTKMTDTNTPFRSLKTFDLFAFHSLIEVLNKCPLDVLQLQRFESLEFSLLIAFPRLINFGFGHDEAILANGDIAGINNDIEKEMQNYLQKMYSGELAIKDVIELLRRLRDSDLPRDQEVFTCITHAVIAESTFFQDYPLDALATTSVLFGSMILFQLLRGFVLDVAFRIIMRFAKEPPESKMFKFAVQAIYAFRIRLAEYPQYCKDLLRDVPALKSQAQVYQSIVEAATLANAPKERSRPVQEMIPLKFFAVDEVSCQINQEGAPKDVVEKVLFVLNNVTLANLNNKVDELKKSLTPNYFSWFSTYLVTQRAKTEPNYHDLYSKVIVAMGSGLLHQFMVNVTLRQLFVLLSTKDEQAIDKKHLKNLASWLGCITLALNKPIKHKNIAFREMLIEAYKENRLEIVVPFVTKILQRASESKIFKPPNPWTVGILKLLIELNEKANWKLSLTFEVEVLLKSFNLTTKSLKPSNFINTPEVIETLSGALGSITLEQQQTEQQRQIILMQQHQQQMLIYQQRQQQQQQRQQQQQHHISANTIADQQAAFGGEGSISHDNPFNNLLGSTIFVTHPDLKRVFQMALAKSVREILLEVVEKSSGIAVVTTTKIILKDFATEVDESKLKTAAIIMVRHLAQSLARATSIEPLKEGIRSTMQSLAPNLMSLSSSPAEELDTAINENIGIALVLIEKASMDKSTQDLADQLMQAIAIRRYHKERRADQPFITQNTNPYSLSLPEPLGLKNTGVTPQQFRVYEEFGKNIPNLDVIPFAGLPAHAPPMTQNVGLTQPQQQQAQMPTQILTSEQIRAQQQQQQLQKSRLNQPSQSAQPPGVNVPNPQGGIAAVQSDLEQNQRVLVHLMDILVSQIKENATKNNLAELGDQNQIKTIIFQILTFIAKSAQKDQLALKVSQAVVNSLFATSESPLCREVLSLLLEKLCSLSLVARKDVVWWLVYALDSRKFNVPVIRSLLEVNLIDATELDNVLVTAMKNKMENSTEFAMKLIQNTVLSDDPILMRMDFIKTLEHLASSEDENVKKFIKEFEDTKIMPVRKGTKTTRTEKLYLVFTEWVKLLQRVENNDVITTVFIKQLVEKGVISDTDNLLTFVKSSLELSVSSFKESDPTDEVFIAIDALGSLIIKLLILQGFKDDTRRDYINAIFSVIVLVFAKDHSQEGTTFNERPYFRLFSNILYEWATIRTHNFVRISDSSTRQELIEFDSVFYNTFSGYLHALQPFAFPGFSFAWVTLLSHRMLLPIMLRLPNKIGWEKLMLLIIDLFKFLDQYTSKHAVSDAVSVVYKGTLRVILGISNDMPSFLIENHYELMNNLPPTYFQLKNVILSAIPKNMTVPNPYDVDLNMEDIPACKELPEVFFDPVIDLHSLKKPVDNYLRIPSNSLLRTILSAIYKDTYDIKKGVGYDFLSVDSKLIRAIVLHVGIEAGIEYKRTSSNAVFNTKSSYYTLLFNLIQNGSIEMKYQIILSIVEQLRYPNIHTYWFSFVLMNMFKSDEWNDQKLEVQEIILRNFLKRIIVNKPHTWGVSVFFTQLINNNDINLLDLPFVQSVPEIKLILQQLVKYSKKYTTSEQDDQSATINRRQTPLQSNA
UniProt Q02455: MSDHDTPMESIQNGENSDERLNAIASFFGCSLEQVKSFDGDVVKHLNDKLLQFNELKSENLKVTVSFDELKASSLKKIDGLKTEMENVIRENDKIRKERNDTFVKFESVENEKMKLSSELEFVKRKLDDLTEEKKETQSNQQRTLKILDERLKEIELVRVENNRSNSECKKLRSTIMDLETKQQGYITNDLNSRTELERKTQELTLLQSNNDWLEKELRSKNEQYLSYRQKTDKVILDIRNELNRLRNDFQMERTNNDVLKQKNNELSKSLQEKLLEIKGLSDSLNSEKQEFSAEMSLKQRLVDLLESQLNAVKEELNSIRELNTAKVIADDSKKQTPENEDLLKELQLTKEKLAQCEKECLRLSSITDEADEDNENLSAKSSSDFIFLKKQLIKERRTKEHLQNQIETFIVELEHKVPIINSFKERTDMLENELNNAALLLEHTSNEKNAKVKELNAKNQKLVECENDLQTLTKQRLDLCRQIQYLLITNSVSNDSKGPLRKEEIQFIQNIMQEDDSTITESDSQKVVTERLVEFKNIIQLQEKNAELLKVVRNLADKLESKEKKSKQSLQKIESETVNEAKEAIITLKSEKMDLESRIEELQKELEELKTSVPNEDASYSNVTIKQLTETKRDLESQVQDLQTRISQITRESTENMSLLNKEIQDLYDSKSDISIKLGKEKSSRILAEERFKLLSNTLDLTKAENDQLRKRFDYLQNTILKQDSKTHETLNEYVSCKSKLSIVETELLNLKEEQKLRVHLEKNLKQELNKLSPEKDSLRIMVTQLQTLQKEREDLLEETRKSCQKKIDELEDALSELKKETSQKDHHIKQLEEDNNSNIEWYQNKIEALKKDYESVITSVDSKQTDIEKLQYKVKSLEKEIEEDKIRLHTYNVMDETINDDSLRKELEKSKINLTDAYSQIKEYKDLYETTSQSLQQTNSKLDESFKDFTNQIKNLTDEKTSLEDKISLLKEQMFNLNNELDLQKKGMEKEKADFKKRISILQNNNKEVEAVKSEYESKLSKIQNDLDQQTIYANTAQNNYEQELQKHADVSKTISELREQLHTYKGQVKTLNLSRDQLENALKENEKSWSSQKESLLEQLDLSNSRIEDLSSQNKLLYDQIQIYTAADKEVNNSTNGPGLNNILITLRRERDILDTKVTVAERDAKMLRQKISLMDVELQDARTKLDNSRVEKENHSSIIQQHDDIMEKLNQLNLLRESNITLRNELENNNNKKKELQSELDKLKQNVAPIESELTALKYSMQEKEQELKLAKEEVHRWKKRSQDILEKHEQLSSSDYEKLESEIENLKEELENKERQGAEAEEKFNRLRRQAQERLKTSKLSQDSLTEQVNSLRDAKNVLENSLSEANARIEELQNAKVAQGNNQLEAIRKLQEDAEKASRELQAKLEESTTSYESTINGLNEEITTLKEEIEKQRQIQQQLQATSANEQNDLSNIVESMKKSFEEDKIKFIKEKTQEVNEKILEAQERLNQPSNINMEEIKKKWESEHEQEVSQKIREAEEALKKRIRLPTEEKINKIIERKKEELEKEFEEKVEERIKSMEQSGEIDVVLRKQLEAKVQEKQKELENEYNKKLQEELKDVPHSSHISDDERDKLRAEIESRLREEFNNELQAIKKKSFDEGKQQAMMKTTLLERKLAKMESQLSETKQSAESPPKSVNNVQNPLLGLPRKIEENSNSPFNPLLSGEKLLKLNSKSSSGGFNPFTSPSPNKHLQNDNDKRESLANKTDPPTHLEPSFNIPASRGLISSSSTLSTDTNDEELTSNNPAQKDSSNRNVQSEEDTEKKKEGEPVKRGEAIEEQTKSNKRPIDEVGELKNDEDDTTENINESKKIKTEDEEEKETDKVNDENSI
UniProt P40457: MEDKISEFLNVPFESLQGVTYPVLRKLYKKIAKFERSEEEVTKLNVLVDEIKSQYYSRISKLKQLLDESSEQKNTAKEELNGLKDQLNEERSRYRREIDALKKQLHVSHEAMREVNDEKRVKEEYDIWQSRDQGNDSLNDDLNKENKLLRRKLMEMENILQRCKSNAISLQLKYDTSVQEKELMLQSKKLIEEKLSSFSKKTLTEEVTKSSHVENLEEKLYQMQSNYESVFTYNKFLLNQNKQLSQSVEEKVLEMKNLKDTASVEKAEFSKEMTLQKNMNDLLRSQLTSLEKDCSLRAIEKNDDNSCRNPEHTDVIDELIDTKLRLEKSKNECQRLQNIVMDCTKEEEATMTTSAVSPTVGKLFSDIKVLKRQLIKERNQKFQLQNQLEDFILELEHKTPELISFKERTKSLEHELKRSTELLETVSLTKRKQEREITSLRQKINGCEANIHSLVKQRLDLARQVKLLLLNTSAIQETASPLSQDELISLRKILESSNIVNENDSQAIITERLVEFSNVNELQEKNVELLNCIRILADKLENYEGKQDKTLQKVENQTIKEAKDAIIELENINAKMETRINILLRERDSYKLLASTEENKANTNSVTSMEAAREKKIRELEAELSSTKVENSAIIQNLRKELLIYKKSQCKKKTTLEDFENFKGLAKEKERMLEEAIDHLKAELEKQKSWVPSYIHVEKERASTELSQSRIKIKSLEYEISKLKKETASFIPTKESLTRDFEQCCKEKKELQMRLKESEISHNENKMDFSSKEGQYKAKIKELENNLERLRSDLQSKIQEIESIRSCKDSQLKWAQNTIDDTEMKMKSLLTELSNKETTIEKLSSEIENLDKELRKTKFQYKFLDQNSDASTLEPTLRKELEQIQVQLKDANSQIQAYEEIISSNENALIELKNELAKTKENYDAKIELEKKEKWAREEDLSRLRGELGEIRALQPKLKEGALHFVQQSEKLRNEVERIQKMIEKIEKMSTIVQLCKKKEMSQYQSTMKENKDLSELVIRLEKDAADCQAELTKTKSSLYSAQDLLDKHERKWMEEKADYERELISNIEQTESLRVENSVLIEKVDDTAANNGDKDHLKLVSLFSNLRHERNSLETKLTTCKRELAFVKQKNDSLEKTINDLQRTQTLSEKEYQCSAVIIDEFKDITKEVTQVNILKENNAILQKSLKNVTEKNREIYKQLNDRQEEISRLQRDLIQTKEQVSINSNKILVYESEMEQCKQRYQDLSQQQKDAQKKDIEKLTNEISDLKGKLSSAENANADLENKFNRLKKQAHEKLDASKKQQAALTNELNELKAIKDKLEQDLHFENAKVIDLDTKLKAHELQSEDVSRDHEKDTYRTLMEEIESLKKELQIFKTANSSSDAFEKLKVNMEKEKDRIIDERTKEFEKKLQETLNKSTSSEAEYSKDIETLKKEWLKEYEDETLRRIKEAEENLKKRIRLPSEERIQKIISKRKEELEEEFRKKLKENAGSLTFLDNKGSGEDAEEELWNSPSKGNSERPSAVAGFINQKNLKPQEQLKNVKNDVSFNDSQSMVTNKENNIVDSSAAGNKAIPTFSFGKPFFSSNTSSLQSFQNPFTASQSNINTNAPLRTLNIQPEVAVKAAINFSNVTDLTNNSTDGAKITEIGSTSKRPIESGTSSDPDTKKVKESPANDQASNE
UniProt P39705: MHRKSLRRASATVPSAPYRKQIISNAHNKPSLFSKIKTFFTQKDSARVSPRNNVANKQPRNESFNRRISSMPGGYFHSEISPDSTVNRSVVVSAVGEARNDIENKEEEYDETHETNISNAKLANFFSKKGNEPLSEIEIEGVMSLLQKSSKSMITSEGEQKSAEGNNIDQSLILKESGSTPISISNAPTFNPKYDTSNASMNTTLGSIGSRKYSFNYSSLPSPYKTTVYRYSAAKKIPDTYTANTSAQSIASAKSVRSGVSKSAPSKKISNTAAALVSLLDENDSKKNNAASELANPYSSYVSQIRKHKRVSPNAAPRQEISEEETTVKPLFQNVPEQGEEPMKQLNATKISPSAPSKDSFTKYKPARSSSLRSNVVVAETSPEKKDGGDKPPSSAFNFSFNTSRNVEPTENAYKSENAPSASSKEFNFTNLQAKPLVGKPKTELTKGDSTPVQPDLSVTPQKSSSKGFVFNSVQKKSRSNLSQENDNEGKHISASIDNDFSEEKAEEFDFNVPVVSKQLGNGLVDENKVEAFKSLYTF
UniProt P10659: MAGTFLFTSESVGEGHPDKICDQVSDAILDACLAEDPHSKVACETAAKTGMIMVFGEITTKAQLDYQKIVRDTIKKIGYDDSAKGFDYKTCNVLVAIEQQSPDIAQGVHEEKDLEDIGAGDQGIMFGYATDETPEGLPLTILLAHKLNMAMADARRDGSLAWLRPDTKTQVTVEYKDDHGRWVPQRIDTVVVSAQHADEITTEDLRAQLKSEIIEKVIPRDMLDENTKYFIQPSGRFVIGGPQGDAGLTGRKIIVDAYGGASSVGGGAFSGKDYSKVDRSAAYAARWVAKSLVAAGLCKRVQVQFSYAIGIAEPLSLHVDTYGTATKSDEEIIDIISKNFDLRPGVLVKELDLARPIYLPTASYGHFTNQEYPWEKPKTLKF

No constants are given. Whether binding was seen depends on the method and setting. In cells and extracts the contact can be indirect. A yes stands for co-enrichment or nearness to the bait. Other partners may have been found.

In assay [1] the target is T1, Caf130-TAP (S. cerevisiae) (UniProt P53280).
T1 sequence: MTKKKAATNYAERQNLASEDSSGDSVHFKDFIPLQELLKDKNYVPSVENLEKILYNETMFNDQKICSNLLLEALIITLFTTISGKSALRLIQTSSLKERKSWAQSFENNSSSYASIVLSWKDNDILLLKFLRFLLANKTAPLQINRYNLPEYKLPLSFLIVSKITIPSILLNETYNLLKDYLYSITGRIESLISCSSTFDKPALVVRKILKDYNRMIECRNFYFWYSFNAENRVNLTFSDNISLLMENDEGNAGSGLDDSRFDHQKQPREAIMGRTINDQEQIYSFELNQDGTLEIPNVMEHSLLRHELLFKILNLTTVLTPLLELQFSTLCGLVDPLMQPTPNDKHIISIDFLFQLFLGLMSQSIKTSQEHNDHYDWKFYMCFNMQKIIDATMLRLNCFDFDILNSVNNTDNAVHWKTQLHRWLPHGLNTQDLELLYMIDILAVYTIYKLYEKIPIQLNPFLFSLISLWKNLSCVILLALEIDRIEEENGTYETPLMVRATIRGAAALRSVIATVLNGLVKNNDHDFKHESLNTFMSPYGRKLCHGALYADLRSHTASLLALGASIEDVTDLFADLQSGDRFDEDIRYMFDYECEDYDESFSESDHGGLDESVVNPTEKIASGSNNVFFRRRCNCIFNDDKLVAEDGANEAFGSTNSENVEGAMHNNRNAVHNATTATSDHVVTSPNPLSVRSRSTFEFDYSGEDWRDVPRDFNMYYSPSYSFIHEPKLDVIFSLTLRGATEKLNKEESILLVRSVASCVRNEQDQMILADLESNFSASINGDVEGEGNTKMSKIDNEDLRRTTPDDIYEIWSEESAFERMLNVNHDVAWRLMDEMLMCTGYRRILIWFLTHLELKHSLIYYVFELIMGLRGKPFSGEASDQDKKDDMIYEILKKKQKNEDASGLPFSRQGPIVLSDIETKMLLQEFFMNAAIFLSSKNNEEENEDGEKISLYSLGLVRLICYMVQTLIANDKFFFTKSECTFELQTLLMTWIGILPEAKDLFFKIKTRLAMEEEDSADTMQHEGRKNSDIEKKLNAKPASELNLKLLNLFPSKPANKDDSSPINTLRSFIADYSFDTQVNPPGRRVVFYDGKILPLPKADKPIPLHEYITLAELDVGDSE
As to the kind of experiment: affinity purification with mass spectrometry; tandem affinity purification of the TAP-tagged Ccr4-Not subunit from yeast whole cell extract (wild type or caf130Δ, not3Δ, caf40Δ backgrounds); SDS-PAGE, Coomassie bands excised, MALDI-TOF, MASCOT search.

The target of assay [2] is T2, Caf40-TAP (S. cerevisiae) (UniProt P53829).
T2 sequence: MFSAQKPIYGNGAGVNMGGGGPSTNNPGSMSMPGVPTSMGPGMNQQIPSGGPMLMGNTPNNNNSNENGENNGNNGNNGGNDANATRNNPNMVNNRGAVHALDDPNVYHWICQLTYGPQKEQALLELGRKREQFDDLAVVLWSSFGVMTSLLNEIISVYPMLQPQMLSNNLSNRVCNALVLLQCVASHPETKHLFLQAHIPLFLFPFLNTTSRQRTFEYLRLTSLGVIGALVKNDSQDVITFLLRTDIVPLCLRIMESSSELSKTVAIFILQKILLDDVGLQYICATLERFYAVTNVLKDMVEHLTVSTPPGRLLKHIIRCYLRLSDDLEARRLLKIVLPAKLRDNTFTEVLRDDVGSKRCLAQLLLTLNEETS
The description is as above.

Another assay has as its target Not1-TAP (S. cerevisiae) (UniProt P25655). The assay is described as above.
Assay [3] concerns the target T3, Not2-TAP (S. cerevisiae) (UniProt P06100).
T3 sequence: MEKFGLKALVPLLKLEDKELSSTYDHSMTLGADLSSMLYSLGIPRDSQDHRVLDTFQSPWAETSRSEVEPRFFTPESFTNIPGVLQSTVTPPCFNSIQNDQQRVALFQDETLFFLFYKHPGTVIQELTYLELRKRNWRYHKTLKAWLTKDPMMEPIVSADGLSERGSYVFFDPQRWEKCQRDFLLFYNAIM
The description is as above.

Another assay addresses T4, Not5-TAP (S. cerevisiae) (UniProt Q12514).
T4 sequence: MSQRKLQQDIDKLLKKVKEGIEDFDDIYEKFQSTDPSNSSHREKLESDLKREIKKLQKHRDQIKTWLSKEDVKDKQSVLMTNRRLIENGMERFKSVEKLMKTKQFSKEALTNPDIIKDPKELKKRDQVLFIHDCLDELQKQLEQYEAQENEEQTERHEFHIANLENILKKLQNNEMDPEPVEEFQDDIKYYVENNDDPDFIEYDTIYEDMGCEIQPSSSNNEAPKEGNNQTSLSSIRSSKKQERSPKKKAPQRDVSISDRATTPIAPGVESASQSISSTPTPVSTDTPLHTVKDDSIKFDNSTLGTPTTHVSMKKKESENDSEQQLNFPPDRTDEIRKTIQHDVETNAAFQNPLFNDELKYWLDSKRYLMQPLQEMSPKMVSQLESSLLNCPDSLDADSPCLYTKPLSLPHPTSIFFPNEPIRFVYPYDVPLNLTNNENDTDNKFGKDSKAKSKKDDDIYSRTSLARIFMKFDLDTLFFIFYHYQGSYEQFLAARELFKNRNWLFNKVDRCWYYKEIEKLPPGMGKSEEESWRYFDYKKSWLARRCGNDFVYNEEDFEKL
In words: affinity purification with mass spectrometry; tandem affinity purification of the TAP-tagged Ccr4-Not subunit from caf130Δ yeast whole cell extract; excised gel bands analysed by NanoLC-ESI-MS/MS, Mascot and Scaffold.

For a further assay, the target named is T5, Not4-TAP (S. cerevisiae) (UniProt P34909).
T5 sequence: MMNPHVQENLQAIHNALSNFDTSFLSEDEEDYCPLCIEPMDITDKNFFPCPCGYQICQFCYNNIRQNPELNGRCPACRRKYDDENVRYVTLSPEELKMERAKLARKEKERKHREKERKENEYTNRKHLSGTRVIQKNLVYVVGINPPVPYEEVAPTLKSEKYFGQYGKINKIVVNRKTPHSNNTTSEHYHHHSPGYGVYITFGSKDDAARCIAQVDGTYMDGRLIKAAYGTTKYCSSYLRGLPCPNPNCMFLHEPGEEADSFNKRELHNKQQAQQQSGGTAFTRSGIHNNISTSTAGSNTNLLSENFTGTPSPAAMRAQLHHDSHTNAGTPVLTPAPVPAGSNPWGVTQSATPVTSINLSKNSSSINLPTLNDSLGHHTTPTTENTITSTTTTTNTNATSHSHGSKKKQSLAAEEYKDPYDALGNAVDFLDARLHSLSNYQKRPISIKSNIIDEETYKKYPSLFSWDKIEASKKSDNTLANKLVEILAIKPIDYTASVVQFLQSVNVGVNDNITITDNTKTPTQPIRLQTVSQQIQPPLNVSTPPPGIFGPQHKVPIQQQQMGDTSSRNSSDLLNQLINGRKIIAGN
As to the kind of experiment: affinity purification with mass spectrometry; tandem affinity purification of the TAP-tagged Ccr4-Not subunit from yeast whole cell extract (wild type or caf130Δ, not3Δ, caf40Δ backgrounds); SDS-PAGE, Coomassie bands excised, MALDI-TOF, MASCOT search.

For assay [4], the target named is T3, Not2-TAP (S. cerevisiae). In words: affinity purification with mass spectrometry; tandem affinity purification of the TAP-tagged Ccr4-Not subunit from caf130Δ yeast whole cell extract; excised gel bands analysed by NanoLC-ESI-MS/MS, Mascot and Scaffold.
Another assay addresses T6, Not3-TAP (S. cerevisiae) (UniProt P06102).
T6 sequence: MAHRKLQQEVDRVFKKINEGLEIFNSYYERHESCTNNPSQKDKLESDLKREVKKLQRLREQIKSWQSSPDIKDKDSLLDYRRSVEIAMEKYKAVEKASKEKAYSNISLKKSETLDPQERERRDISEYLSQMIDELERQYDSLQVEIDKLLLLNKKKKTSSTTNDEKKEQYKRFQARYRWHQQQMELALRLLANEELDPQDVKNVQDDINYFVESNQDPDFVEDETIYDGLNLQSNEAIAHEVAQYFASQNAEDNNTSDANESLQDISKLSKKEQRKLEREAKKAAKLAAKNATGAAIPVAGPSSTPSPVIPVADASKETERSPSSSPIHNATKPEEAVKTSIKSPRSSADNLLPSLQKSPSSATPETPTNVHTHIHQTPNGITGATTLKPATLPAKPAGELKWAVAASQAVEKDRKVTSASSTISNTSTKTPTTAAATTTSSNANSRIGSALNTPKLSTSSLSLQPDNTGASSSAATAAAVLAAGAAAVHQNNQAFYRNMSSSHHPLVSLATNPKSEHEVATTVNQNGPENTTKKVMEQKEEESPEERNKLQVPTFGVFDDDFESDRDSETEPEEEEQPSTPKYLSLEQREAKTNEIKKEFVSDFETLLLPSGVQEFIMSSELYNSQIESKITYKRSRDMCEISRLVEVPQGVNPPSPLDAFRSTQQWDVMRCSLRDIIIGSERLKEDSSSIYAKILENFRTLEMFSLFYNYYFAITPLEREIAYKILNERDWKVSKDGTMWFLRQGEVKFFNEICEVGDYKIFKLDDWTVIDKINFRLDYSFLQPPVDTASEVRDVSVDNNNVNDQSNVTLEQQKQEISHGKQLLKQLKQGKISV
As to the kind of experiment: affinity purification with mass spectrometry; tandem affinity purification of the TAP-tagged Ccr4-Not subunit from yeast whole cell extract (wild type or caf130Δ, not3Δ, caf40Δ backgrounds); SDS-PAGE, Coomassie bands excised, MALDI-TOF, MASCOT search.

On to Mlp1 (from UniProt Q02455 1-1875), for which the binding result (in assay [1]; in assay [2]; with Not1-TAP (S. cerevisiae); with Not2-TAP (S. cerevisiae) [3]) was “binds” throughout.
Turning to Mlp2 (from UniProt P40457 1-1679), the binding entry (in the assay with Not5-TAP (S. cerevisiae); in assay [2]; with Not4-TAP (S. cerevisiae)) was “binds” in each case.
In the case of Nup2 (from UniProt P32499 1-720), the binding entry with Not2-TAP (S. cerevisiae) [4] is recorded as “binds”.
Regarding Nup60 (from UniProt P39705 1-539), in assay [2], the binding result is “binds”.
As for “Sam1 (from UniProt P10659 1-382) (enzyme)”, the binding entry (in assay [2]; with Not2-TAP (S. cerevisiae) [3]; with Not4-TAP (S. cerevisiae)) was “binds” throughout.
On to “Sam2 (from UniProt P19358 1-384) (enzyme)”, for which the binding entry (in assay [2]; with Not4-TAP (S. cerevisiae)) was “binds” in each case.

B1: Mft1 (protein, UniProt P33441 1-392)
chain: MPLSQKQIDQVRTKVHYSEVDTPFNKYLDILGKVTKLTGSIINGTLSNDDSKIEKLTEQNISQLKESAHLRFLDLQSSIDTKKVADENWETCQQETLAKLENLKDKLPDIKSIHSKLLLRIGKLQGLYDSVQVINREVEGLSEGRTSLVVTRAEWEKELGTDLVKFLIEKNYLKLVDPGLKKDSSEERYRIYDDFSKGPKELESINASMKSDIENVRQEVSSYKEKWLRDAEIFGKITSIFKEELLKRDGLLNEAEGDNIDEDYESDEDEERKERFKRQRSMVEVNTIENVDEKEESDHEYDDQEDEENEEEDDMEVDVEDIKEDNEVDGESSQQEDNSRQGNNEETDKETGVIEEPDAVNDAEEADSDHSSRKLGGTTSDFSASSSVEEVK
Take B1: the binding result (in assay [2]; in the assay with Not2-TAP (S. cerevisiae) [3]; in the assay with Not3-TAP (S. cerevisiae)) was “binds” in each case.
